From patent publication US8067582B2 (Bristol-Myers Squibb Company, priority 2007, dated 2011)
Some entries share one result that the patent states for a list of compounds.

System: immature castrated male rats
Assay: Immature Rat Prostate Weight (IRPW) Assay
Format: in vivo, rat (Sprague-Dawley)

SMILES	maximum increase in organ weight (3 mg/rat/day of testosterone (T) for 3 days)	maximum increase in organ weight (1 mg/rat/day of testosterone propionate (TP) for 3 days)
C[C@]12CC[C@H]3[C@@H](CCC4=CC(=O)CC[C@@]43C)[C@@H]1CC[C@@H]2O [T, testosterone, reference compound]	4 to 5 fold	–
CCC(=O)O[C@H]1CC[C@H]2[C@@H]3CCC4=CC(=O)CC[C@]4(C)[C@H]3CC[C@]12C [TP, Testosterone Propionate, reference compound]	–	4 to 5 fold
